Results published in PMC6377682.
No constants are given. Whether binding was seen depends on the method and setting. Some binding calls cover weakened binding; strength is not graded here.

The chains behind the UniProt entries cited, without tags or fusion partners. Residues count along the entry.
UniProt P62140, residues 6-327: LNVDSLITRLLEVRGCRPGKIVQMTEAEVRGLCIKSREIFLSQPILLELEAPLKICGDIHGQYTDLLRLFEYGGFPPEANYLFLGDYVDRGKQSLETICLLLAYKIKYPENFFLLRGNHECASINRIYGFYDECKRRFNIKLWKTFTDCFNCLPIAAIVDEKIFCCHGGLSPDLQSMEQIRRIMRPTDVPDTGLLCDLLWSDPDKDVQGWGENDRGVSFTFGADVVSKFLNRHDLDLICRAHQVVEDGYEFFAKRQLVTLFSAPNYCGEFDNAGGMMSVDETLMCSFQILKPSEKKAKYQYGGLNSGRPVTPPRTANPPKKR

Target: human PP1β^6-327 (human) (UniProt P62140)
Experiment: BLI; HIS tagged PP1α, PP1β or PP1γ1 (50 μg/ml) immobilised on Ni-NTA biosensors, ASPP in solution in kinetics buffer, 25 °C, 1000 rpm; global fit 1:1 model; apparent KD; both purified

binding: binds
B1: human iASPP^621-828 (domain or fragment, UniProt Q8WUF5 621-828)
chain: RRARLNPLVLLLDAALTGELEVVQQAVKEMNDPSQPNEEGITALHNAICGANYSIVDFLITAGANVNSPDSHGWTPLHCAASCNDTVICMALVQHGAAIFATTLSDGATAFEKCDPYREGYADCATYLADVEQSMGLMNSGAVYALWDYSAEFGDELSFREGESVTVLRRDGPEETDWWWAALHGQEGYVPRNYFGLFPRVKPQRSKV
